This is an account of results in paper PMC2883962.

Amino acid sequences for entries named in this document (tags omitted). A change or cut given only in a name is not applied to a line headed by its entry.
UniProt Q04206: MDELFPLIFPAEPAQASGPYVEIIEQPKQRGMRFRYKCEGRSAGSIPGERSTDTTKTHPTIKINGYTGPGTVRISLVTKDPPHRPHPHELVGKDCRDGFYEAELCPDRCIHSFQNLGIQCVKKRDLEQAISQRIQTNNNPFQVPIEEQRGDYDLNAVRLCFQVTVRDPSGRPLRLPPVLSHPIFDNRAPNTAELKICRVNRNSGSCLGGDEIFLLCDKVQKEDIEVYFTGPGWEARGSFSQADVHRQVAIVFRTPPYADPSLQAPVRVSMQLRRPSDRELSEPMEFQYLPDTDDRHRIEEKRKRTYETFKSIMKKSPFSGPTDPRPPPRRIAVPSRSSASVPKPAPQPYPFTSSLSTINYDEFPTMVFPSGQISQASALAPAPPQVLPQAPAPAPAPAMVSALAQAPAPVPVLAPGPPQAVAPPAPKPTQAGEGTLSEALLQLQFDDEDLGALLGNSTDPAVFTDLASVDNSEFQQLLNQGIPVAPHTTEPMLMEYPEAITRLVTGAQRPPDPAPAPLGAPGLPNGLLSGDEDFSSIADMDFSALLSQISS

The target of this test is T1, Par-4 overexpressed in HT29 cells from rat par-4 cDNA in pCB6+ (rat) (UniProt Q62627).
T1 sequence: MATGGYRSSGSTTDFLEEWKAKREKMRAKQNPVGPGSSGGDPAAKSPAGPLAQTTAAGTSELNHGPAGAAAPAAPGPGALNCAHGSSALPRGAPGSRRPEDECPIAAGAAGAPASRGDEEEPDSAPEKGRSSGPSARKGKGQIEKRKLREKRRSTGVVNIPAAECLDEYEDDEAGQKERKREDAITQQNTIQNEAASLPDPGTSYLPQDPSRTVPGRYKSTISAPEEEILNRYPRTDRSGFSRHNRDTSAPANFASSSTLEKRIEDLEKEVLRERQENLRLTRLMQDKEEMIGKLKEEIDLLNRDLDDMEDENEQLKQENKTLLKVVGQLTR
Nature of the test: co-IP; Par-4 antibody immunoprecipitation from nuclear and cytoplasmic fractions (NE-PER kit) of empty vector- and Par-4-transfected HT29 cells; immunoblot with p65 and IκB antibodies.

No constants are given. Whether binding was seen depends on the method and setting. In cells and extracts the contact can be indirect. Some binding calls cover weakened binding; strength is not graded here.

Turning to “NFκB (subunits p65 and p50) (from UniProt Q04206 1-551; P19838 1-433) (complex)”, the binding entry is “binds”.
